Experimental findings from patent US12048306B1, “1,3-bis(naphthalen-1-yloxy)propan-2-one as an eco-friendly insecticidal agent against Spodoptera littoralis (boisd.)” (priority 2023, dated 2024) are described below.

The data set relates to Spodoptera littoralis. The experiment in a line: Insecticidal leaf dip bioassay on S. littoralis larvae. The following applies: 72 hours of treatment, slope of probit (LDP-line) mortality regression.

As to `O=C(COc1cccc2ccccc12)COc1cccc2ccccc12` [III, 1,3-bis(naphthalen-1-yloxy)propan-2-one], the Slope by setting is: (2nd instar larvae) 0.919 ± 0.265; (4th instar larvae) 0.978 ± 0.256.
As for `CCOC(=O)NCCOc1ccc(Oc2ccccc2)cc1` [Fenoxycarb, fenoxycarb, reference compound], the Slope reads like this: (2nd instar larvae) 0.238 ± 0.082; (4th instar larvae) 0.681 ± 0.251.
